Residues, ends and D or L forms follow the SMILES beside them. *: point of attachment. Myristoyl = CCCCCCCCCCCCCC(=O)*; Acm = CC(=O)NC*
Tests used:
[1] = system: K. aerogenes ATCC 13048; format: cell-based, Klebsiella aerogenes; conditions: SI = HC50/MIC
Excerpt: (§1) The Acinetobacter baumannii ATCC BAA-1605, Candida albicans ATCC 10231, Enterococcus faecium ATCC 700221, Klebsiella aerogenes ATCC 13048 (previously known as Enterobacter aerogenes), Klebsiella pneumoniae ATCC 700603, Pseudomonas aeruginosa ATCC 9027, Staphylococcus aureus ATCC 25923 and MRSA ATCC 33591, were acquired from the American Type Culture Collection (ATCC). Before running the tests, beads with cryo-protected microorganisms were transferred into fresh MHB (BioMaxima, Lublin, Poland) for bacteria or RPMI-1640 for fungi and incubated for 24 h at 37 °C. Then, the culture was seeded on the Mueller-Hinton agar (MHA) plates (BioMaxima, Lublin, Poland) for bacteria or Sabouraud dextrose agar (SDA) plates (BioMaxima, Lublin, Poland) for fungi and incubated as just mentioned. Cell densities for all assays were adjusted spectrophotometrically (Multiskan™ GO Microplate Spectrophotometer, Thermo Fisher Scientific, Vantaa, Finland) at 600 nm for bacteria and at 530 nm for fungi.
(§2) The MICs were determined by broth microdilution method according to the Clinical and Laboratory Standard Institute guidelines. For this purpose initial inoculums of bacteria (5 × 10^5 CFU/mL) in MHB (BioMaxima, Lublin, Poland) and fungi (2 × 10^3 CFU/mL) in RPMI-1640 with 2% D-glucose (Merck, Darmstadt, Germany) prepared with MOPS (pH 7.0 ± 0.1 at 25 °C; Merck, Darmstadt, Germany) were exposed to the ranging concentration of lipopeptides (0.5–256 µg/mL) and incubated at 37 °C for 18 h and 24 h respectively. The experiments were conducted on 96-well microtiter polystyrene plates (Kartell, Italy). The MIC was taken as the lowest peptide concentration at which a noticeable growth of microorganisms was inhibited. All experiments were conducted in triplicate.

[2] = system: E. faecium ATCC 700221; format: cell-based, Enterococcus faecium; conditions: SI = HC50/MIC
Excerpt: as §1, §2

## CCCCCCCCCCCCCC(=O)N[C@@H](CCCNC(=N)N)C(=O)N[C@@H](CCCNC(=N)N)C(N)=O [compound 4, C14-RR-NH2, reference compound] (HELM PEPTIDE1{[CCCCCCCCCCCCCC(=O)[*:2]].R.R.[am]}$$$$V2.0)
[1]
  SI (E2): 0.27
[2]
  SI (E1): 8.55

## CCCCCCCCCC(=O)N[C@@H](Cc1c[nH]c2ccccc12)C(=O)N[C@@H](CCCNC(=N)N)C(=O)N[C@@H](CCCNC(=N)N)C(N)=O [compound 96, C10-WRR-NH2] (HELM PEPTIDE1{[CCCCCCCCCC(=O)[*:2]].W.R.R.[am]}$$$$V2.0)
[2]
  SI (E1): 16 (>16)

## CCCCCCCCCCCCCC(=O)N[C@@H](Cc1ccc(O)cc1)C(=O)N[C@@H](CCCNC(=N)N)C(=O)N[C@@H](CCCNC(=N)N)C(N)=O [compound 102, C14-YRR-NH2] (HELM PEPTIDE1{[CCCCCCCCCCCCCC(=O)[*:2]].Y.R.R.[am]}$$$$V2.0)
[1]
  SI (E2): 0.73
[2]
  SI (E1): 11.63

## CCCCCCCCCCCC(=O)N[C@@H](CCCNC(=N)N)C(=O)N[C@@H](CCCNC(=N)N)C(N)=O [compound 3, C12-RR-NH2, reference compound] (HELM PEPTIDE1{[CCCCCCCCCCCC(=O)[*:2]].R.R.[am]}$$$$V2.0)
[2]
  SI (E1): > 8

## CCCCCCCCCCCC(=O)N[C@@H](CCC)C(=O)N[C@@H](CCCNC(=N)N)C(=O)N[C@@H](CCCNC(=N)N)C(N)=O [compound 69, C12-NvaRR-NH2] (HELM PEPTIDE1{[CCCCCCCCCCCC(=O)[*:2]].[Nva].R.R.[am]}$$$$V2.0)
[1]
  SI (E2): 0.81
[2]
  SI (E1): 12.98

## CCCCCCCCCCCCCC(=O)N[C@H](C(=O)N[C@@H](CCCNC(=N)N)C(=O)N[C@@H](CCCNC(=N)N)C(N)=O)[C@@H](C)CC [compound 38, C14-IRR-NH2] (HELM PEPTIDE1{[CCCCCCCCCCCCCC(=O)[*:2]].I.R.R.[am]}$$$$V2.0)
[1]
  SI (E2): 1.23
[2]
  SI (E1): 19.73

## CCCCCCCCCC(=O)N[C@@H](Cc1ccccc1)C(=O)N[C@@H](CCCNC(=N)N)C(=O)N[C@@H](CCCNC(=N)N)C(N)=O [compound 24, C10-FRR-NH2] (HELM PEPTIDE1{[CCCCCCCCCC(=O)[*:2]].F.R.R.[am]}$$$$V2.0)
[2]
  SI (E1): > 8

## CCCCCCCCCCCCCC(=O)N[C@H](C(=O)N[C@@H](CCCNC(=N)N)C(=O)N[C@@H](CCCNC(=N)N)C(N)=O)[C@@H](C)O [compound 90, C14-TRR-NH2] (HELM PEPTIDE1{[CCCCCCCCCCCCCC(=O)[*:2]].T.R.R.[am]}$$$$V2.0)
[1]
  SI (E2): 0.34
[2]
  SI (E1): 5.43

## CCCCCCCCCCCCCC(=O)N[C@@H](Cc1ccccc1)C(=O)N[C@@H](CCCNC(=N)N)C(=O)N[C@@H](CCCNC(=N)N)C(N)=O [compound 26, C14-FRR-NH2] (HELM PEPTIDE1{[CCCCCCCCCCCCCC(=O)[*:2]].F.R.R.[am]}$$$$V2.0)
[1]
  SI (E2): 0.61
[2]
  SI (E1): 2.44

## CCCCCCCCCCCCCC(=O)N[C@@H](CCC)C(=O)N[C@@H](CCCNC(=N)N)C(=O)N[C@@H](CCCNC(=N)N)C(N)=O [compound 70, C14-NvaRR-NH2] (HELM PEPTIDE1{[CCCCCCCCCCCCCC(=O)[*:2]].[Nva].R.R.[am]}$$$$V2.0)
[1]
  SI (E2): 0.33
[2]
  SI (E1): 10.51

## CCCCCCCCCCCCCC(=O)N[C@@H](Cc1c[nH]cn1)C(=O)N[C@@H](CCCNC(=N)N)C(=O)N[C@@H](CCCNC(=N)N)C(N)=O [compound 34, C14-HRR-NH2] (HELM PEPTIDE1{[CCCCCCCCCCCCCC(=O)[*:2]].H.R.R.[am]}$$$$V2.0)
[1]
  SI (E2): 0.20
[2]
  SI (E1): 6.29

## CCCCCCCCCCCCCC(=O)N[C@@H](CSCNC(C)=O)C(=O)N[C@@H](CCCNC(=N)N)C(=O)N[C@@H](CCCNC(=N)N)C(N)=O [compound 14, C14-C(Acm)RR-NH2] (Myristoyl-Cys(Acm)-Arg-Arg-NH2)
[1]
  SI (E2): 0.16
[2]
  SI (E1): 4.97

## CCCCCCCCCCCCCC(=O)N[C@@H](CO)C(=O)N[C@@H](CCCNC(=N)N)C(=O)N[C@@H](CCCNC(=N)N)C(N)=O [compound 86, C14-SRR-NH2] (HELM PEPTIDE1{[CCCCCCCCCCCCCC(=O)[*:2]].S.R.R.[am]}$$$$V2.0)
[1]
  SI (E2): 0.32
[2]
  SI (E1): 2.60

## CCCCCCCCCCCC(=O)N[C@H](C(=O)N[C@@H](CCCNC(=N)N)C(=O)N[C@@H](CCCNC(=N)N)C(N)=O)C(C)C [compound 93, C12-VRR-NH2] (HELM PEPTIDE1{[CCCCCCCCCCCC(=O)[*:2]].V.R.R.[am]}$$$$V2.0)
[1]
  SI (E2): 0.96
[2]
  SI (E1): 15.39

## CCCCCCCCCCCCCC(=O)N[C@@H](CC(C)C)C(=O)N[C@@H](CCCNC(=N)N)C(=O)N[C@@H](CCCNC(=N)N)C(N)=O [compound 46, C14-LRR-NH2] (HELM PEPTIDE1{[CCCCCCCCCCCCCC(=O)[*:2]].L.R.R.[am]}$$$$V2.0)
[1]
  SI (E2): 0.23
[2]
  SI (E1): 3.69

## CCCCCCCCCCCCCC(=O)N[C@H](C(=O)N[C@@H](CCCNC(=N)N)C(=O)N[C@@H](CCCNC(=N)N)C(N)=O)C(C)C [compound 94, C14-VRR-NH2] (HELM PEPTIDE1{[CCCCCCCCCCCCCC(=O)[*:2]].V.R.R.[am]}$$$$V2.0)
[1]
  SI (E2): 0.24
[2]
  SI (E1): 1.92

## CCCCCCCCCCCC(=O)N[C@@H](CCCNC(=N)N)C(=O)N[C@@H](CCCNC(=N)N)C(=O)N[C@@H](CCCNC(=N)N)C(N)=O [compound 81, C12-RRR-NH2] (HELM PEPTIDE1{[CCCCCCCCCCCC(=O)[*:2]].R.R.R.[am]}$$$$V2.0)
[2]
  SI (E1): 16 (>16)

## CCCCCCCCCCCC(=O)N[C@@H](CC(C)C)C(=O)N[C@@H](CCCNC(=N)N)C(=O)N[C@@H](CCCNC(=N)N)C(N)=O [compound 45, C12-LRR-NH2] (HELM PEPTIDE1{[CCCCCCCCCCCC(=O)[*:2]].L.R.R.[am]}$$$$V2.0)
[1]
  SI (E2): 0.44
[2]
  SI (E1): 7.05

## CCCCCCCCCCCC(=O)N[C@@H](Cc1c[nH]c2ccccc12)C(=O)N[C@@H](CCCNC(=N)N)C(=O)N[C@@H](CCCNC(=N)N)C(N)=O [compound 97, C12-WRR-NH2] (HELM PEPTIDE1{[CCCCCCCCCCCC(=O)[*:2]].W.R.R.[am]}$$$$V2.0)
[1]
  SI (E2): 0.17
[2]
  SI (E1): 5.30

## CCCCCCCCCCCCCC(=O)N[C@@H](CCS(C)(=O)=O)C(=O)N[C@@H](CCCNC(=N)N)C(=O)N[C@@H](CCCNC(=N)N)C(N)=O [compound 58, C14-M(O2)RR-NH2] (HELM PEPTIDE1{[CCCCCCCCCCCCCC(=O)[*:2]].[CS(=O)(=O)CC[C@H](N[*:1])C(=O)[*:2]].R.R.[am]}$$$$V2.0)
[1]
  SI (E2): 0.27
[2]
  SI (E1): 8.76

## CCCCCCCCCCCCCC(=O)N[C@@H](CCCNC(=N)N)C(=O)N[C@@H](CCCNC(=N)N)C(=O)N[C@@H](CCCNC(=N)N)C(N)=O [compound 82, C14-RRR-NH2] (HELM PEPTIDE1{[CCCCCCCCCCCCCC(=O)[*:2]].R.R.R.[am]}$$$$V2.0)
[1]
  SI (E2): 1.65
[2]
  SI (E1): 26.42

## CCCCCCCCCCCCCC(=O)N[C@@H](CCCCN)C(=O)N[C@@H](CCCNC(=N)N)C(=O)N[C@@H](CCCNC(=N)N)C(N)=O [compound 42, C14-KRR-NH2] (HELM PEPTIDE1{[CCCCCCCCCCCCCC(=O)[*:2]].K.R.R.[am]}$$$$V2.0)
[1]
  SI (E2): 3.31
[2]
  SI (E1): 26.51

## CCCCCCCCCCCC(=O)N[C@@H](CCSC)C(=O)N[C@@H](CCCNC(=N)N)C(=O)N[C@@H](CCCNC(=N)N)C(N)=O [compound 49, C12-MRR-NH2] (HELM PEPTIDE1{[CCCCCCCCCCCC(=O)[*:2]].M.R.R.[am]}$$$$V2.0)
[1]
  SI (E2): 0.81
[2]
  SI (E1): 12.91

## CCCCCCCCCCCCCC(=O)N[C@@H](CC[S+](C)[O-])C(=O)N[C@@H](CCCNC(=N)N)C(=O)N[C@@H](CCCNC(=N)N)C(N)=O (stereo partly drawn) [compound 54, C14-M(O)RR-NH2] (HELM PEPTIDE1{[CCCCCCCCCCCCCC(=O)[*:2]].[CS(=O)CC[C@H](N[*:1])C(=O)[*:2]].R.R.[am]}$$$$V2.0)
[2]
  SI (E1): 7.27

## CCCCCCCCCCCCCCCCCC(=O)N[C@@H](CCCNC(=N)N)C(=O)N[C@@H](CCCNC(=N)N)C(N)=O [compound 6, C18-RR-NH2, reference compound] (HELM PEPTIDE1{[CCCCCCCCCCCCCCCCCC(=O)[*:2]].R.R.[am]}$$$$V2.0)
[1]
  SI (E2): 1.57
[2]
  SI (E1): 3.15

## CCCCCCCCCCCCCC(=O)NCC(=O)N[C@@H](CCCNC(=N)N)C(=O)N[C@@H](CCCNC(=N)N)C(N)=O [compound 30, C14-GRR-NH2]
[1]
  SI (E2): 0.12
[2]
  SI (E1): 3.99

## CCCCCCCCCCCC(=O)N[C@@H](Cc1ccc(O)cc1)C(=O)N[C@@H](CCCNC(=N)N)C(=O)N[C@@H](CCCNC(=N)N)C(N)=O [compound 101, C12-YRR-NH2] (HELM PEPTIDE1{[CCCCCCCCCCCC(=O)[*:2]].Y.R.R.[am]}$$$$V2.0)
[1]
  SI (E2): 0.96
[2]
  SI (E1): 7.69

## CCCCCCCCCCCCCC(=O)N[C@@H](CCC(N)=O)C(=O)N[C@@H](CCCNC(=N)N)C(=O)N[C@@H](CCCNC(=N)N)C(N)=O [compound 78, C14-QRR-NH2] (HELM PEPTIDE1{[CCCCCCCCCCCCCC(=O)[*:2]].Q.R.R.[am]}$$$$V2.0)
[1]
  SI (E2): 0.28
[2]
  SI (E1): 4.52

— article PMC7024302, “Ultrashort Cationic Lipopeptides–Effect of N-Terminal Amino Acid and Fatty Acid Type on Antimicrobial Activity and Hemolysis” (Molecules, 2020)
